PubChem BioAssay AID1259308, NCATS, 2017

Assay: 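Knock-downs that increase output of a recombinant reporter protein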 (primary screen)
Cells: human HEK293 embryonic kidney cells stably expressing firefly luciferase (HEK-CMV-Luc2-Hygro)
Reagent: single siRNA against human genes, 0.8 pmol siRNA per well
Duration: 72 h
Detection: 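Luciferase light (ONE-Glo) measured on one replicate plate set and viability (CellTiter-Glo) on the other, scaled to a negative control siRNA, with robust z-scores and luciferase per cell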
Direction: total luciferase, z-score and total luciferase, % of control: higher = more reporter protein produced
Hit rule: 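Active when the median/MAD z-score for overall luciferase is greater than 3; a gene was taken forward for validation with new siRNAs if at least two of its three siRNAs passed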
Calls: active = raised luciferase; inactive = no rise
Shown is an unselected part of about 59,000 reagents tested. About 1,510 of all reagents (2.6%) were called active. 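Calls use total luciferase alone and ignore viability, so some active siRNAs may act by altering cell number.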 Further read-outs or replicates are left out here.

Silencing of MLX (GeneID 6945) [SID160717836] gave: total luciferase, z-score 0.431; total luciferase, % of control 90.5; inactive. For MLX (GeneID 6945) [SID160717837] the deposit lists total luciferase, z-score 0.0684; total luciferase, % of control 83.2; inactive. For MLX (GeneID 6945) [SID160731820], the values are total luciferase, z-score -0.523; total luciferase, % of control 71.5; inactive. FBN2 (GeneID 2201) [SID160764167] scored total luciferase, z-score 1.41; total luciferase, % of control 110; inactive. With knock-down of FBN2 (GeneID 2201) [SID160764177], the record shows total luciferase, z-score -0.867; total luciferase, % of control 64.6; inactive. Depletion of FBN2 (GeneID 2201) [SID160764186] gave: total luciferase, z-score 0.867; total luciferase, % of control 99.1; inactive.

Knock-down of PAK4 (GeneID 10298) [SID160728115] came out at: total luciferase, z-score -0.906; total luciferase, % of control 63.9; inactive. After knock-down of PAK4 (GeneID 10298) [SID160728116] the results were total luciferase, z-score -0.852; total luciferase, % of control 64.9; inactive. PAK4 (GeneID 10298) [SID160728117] scored total luciferase, z-score 0.924; total luciferase, % of control 100; inactive. Depletion of PRRX1 (GeneID 5396) [SID160714558] gave: total luciferase, z-score 0.00899; total luciferase, % of control 82.1; inactive. Against PRRX1 (GeneID 5396) [SID160714559], the values are total luciferase, z-score -0.0761; total luciferase, % of control 80.4; inactive. For PRRX1 (GeneID 5396) [SID160714560], the entry reads total luciferase, z-score -0.55; total luciferase, % of control 70.9; inactive.

For ATXN3L (GeneID 92552) [SID160754303], the entry reads total luciferase, z-score 0.521; total luciferase, % of control 92.2; inactive. Knock-down of ATXN3L (GeneID 92552) [SID160754304] came out at: total luciferase, z-score -0.409; total luciferase, % of control 73.7; inactive. Against ATXN3L (GeneID 92552) [SID160754305], the entry reads total luciferase, z-score -1.33; total luciferase, % of control 55.5; inactive. After knock-down of NCKAP5 (GeneID 344148) [SID160764756], the screen gave total luciferase, z-score 0.403; total luciferase, % of control 89.9; inactive. NCKAP5 (GeneID 344148) [SID160764757] gave total luciferase, z-score -0.0357; total luciferase, % of control 81.2; inactive. Against NCKAP5 (GeneID 344148) [SID160764758], the values are total luciferase, z-score 0.0303; total luciferase, % of control 82.5; inactive.

Against RHBDF2 (GeneID 79651) [SID160749100], the entry reads total luciferase, z-score 0.808; total luciferase, % of control 98; inactive. With knock-down of RHBDF2 (GeneID 79651) [SID160749101] the results were total luciferase, z-score -0.785; total luciferase, % of control 66.3; inactive. RHBDF2 (GeneID 79651) [SID160749102] scored total luciferase, z-score -1.86; total luciferase, % of control 44.8; inactive. After knock-down of ATXN2 (GeneID 6311) [SID160716364] the results were total luciferase, z-score 0.313; total luciferase, % of control 88.1; inactive. ATXN2 (GeneID 6311) [SID160716365] showed total luciferase, z-score 0.895; total luciferase, % of control 99.7; inactive. With knock-down of ATXN2 (GeneID 6311) [SID160716366], the screen gave total luciferase, z-score 1.43; total luciferase, % of control 110; inactive.

MYEF2 (GeneID 50804) [SID160739701] scored total luciferase, z-score -1.98; total luciferase, % of control 42.5; inactive. MYEF2 (GeneID 50804) [SID160739702] gave total luciferase, z-score -0.043; total luciferase, % of control 81; inactive. MYEF2 (GeneID 50804) [SID160739703] showed total luciferase, z-score -0.23; total luciferase, % of control 77.3; inactive. For INVS (GeneID 27130) [SID160738426], the values are total luciferase, z-score 0.359; total luciferase, % of control 89; inactive. Against INVS (GeneID 27130) [SID160738427], the entry reads total luciferase, z-score 1.2; total luciferase, % of control 106; inactive. Depletion of INVS (GeneID 27130) [SID160738428] gave: total luciferase, z-score 0.919; total luciferase, % of control 100; inactive.

After knock-down of CRHR2 (GeneID 1395) [SID160748179], the screen gave total luciferase, z-score -0.168; total luciferase, % of control 78.5; inactive. Silencing of CRHR2 (GeneID 1395) [SID160748189] came out at: total luciferase, z-score 2.99; total luciferase, % of control 141; inactive. CRHR2 (GeneID 1395) [SID160748200] showed total luciferase, z-score -0.44; total luciferase, % of control 73.1; inactive.
